Measurements from paper PMC10617600.
No constants are given. Whether binding was seen depends on the method and setting. In cells and extracts the contact can be indirect. Some entries that bind do so weakly or less than the wild type.

Key:
Assay in all cases: split reporter; BiFC with VN and VC fragments of Venus in living yeast cells (haploid; diploid for Cdc10–Cdc10; WT and axl2Δ), YFP imaging at ∼24°C
[1] = biological target: T1, Cdc11–VC (S. cerevisiae) (UniProt P32458)
T1 sequence: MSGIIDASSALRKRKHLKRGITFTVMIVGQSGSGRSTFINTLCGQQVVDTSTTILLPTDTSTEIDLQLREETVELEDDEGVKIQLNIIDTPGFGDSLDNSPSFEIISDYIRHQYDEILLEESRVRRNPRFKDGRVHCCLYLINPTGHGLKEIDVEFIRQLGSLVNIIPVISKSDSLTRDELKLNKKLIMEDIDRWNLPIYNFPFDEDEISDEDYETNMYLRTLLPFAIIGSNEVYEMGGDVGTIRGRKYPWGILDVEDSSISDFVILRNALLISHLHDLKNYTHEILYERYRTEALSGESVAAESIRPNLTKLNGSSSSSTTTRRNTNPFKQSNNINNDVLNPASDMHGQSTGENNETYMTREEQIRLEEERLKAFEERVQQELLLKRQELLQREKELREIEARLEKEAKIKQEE

[2] = biological target: T2, Cdc12–VC (S. cerevisiae) (UniProt P32468)
T2 sequence: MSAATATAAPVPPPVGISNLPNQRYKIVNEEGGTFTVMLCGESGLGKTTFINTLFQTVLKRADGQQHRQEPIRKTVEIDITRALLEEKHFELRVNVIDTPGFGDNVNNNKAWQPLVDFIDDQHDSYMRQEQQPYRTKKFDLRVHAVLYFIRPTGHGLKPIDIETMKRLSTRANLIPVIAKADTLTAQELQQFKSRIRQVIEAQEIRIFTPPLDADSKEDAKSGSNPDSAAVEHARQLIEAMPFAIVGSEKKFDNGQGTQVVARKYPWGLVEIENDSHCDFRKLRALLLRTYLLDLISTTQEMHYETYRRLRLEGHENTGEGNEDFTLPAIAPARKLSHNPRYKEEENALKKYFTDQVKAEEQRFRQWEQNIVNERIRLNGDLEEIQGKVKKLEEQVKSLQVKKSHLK

[3] = biological target: T3, Cdc10–VC (S. cerevisiae) (UniProt P25342)
T3 sequence: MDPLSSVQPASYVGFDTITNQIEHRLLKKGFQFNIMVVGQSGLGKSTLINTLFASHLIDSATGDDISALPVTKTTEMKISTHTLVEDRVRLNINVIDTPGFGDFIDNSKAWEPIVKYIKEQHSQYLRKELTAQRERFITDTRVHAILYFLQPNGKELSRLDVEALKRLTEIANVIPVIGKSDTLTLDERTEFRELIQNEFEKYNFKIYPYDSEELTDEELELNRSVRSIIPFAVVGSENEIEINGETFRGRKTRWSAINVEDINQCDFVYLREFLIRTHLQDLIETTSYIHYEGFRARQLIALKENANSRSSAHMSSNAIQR

[4] = biological target: T4, Cdc11ΔC–VC (S. cerevisiae) (UniProt P32458)
T4 sequence: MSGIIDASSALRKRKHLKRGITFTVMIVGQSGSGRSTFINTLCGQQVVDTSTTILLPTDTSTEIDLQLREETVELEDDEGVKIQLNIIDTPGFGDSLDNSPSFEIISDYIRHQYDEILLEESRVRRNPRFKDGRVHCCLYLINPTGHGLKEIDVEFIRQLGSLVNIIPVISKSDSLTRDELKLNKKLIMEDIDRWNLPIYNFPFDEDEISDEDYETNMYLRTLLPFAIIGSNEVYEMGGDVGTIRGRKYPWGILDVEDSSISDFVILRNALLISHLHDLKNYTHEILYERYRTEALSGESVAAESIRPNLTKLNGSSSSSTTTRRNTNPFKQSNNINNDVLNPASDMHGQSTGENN

binding [1]: no binding
binding [2]: no binding
binding [3]: binds
binding [4]: no binding
B1: Axl2–VN (protein, UniProt P38928 23-823)
chain: TPYEAYPIGKQYPPVARVNESFTFQISNDTYKSSVDKTAQITYNCFDLPSWLSFDSSSRTFSGEPSSDLLSDANTTLYFNVILEGTDSADSTSLNNTYQFVVTNRPSISLSSDFNLLALLKNYGYTNGKNALKLDPNEVFNVTFDRSMFTNEESIVSYYGRSQLYNAPLPNWLFFDSGELKFTGTAPVINSAIAPETSYSFVIIATDIEGFSAVEVEFELVIGAHQLTTSIQNSLIINVTDTGNVSYDLPLNYVYLDDDPISSDKLGSINLLDAPDWVALDNATISGSVPDELLGKNSNPANFSVSIYDTYGDVIYFNFEVVSTTDLFAISSLPNINATRGEWFSYYFLPSQFTDYVNTNVSLEFTNSSQDHDWVKFQSSNLTLAGEVPKNFDKLSLGLKANQGSQSQELYFNIIGMDSKITHSNHSANATSTRSSHHSTSTSSYTSSTYTAKISSTSAAATSSAPAALPAANKTSSHNKKAVAIACGVAIPLGVILVALICFLIFWRRRRENPDDENLPHAISGPDLNNPANKPNQENATPLNNPFDDDASSYDDTSIARRLAALNTLKLDNHSATESDISSVDEKRDSLSGMNTYNDQFQSQSKEELLAKPPVQPPESPFFDPQNRSSSVYMDSEPAVNKSWRYTGNLSPVSDIVRDSYGSQKTVDTEKLFDLEAPEKEKRTSRDVTMSSLDPWNSNISPSPVRKSVTPSPYNVTKHRNRHLQNIQDSQSGKNGITPTTMSTSSSDDFVPVKDGENFCWVHSMEPDRRPSKKRLVDFSNKSNVNVGQVKDIHGRIPEML
